This is an account of results in US4599198 (dated 1986).

A short description of the series: general procedure: solution-phase peptide synthesis; dicyclohexylcarbodiimide / 1-hydroxybenzotriazole hydrate.

“BocPhe-N-methylHis-2-N-i-butylazahomocyclohexylStaLysPheNH2”: the step yield entry (purification step, of crude material injected) is reported as “Approximately 30%”.

Consider “BocPheHis(imBoc)-O-benzyl-2-oxahomocyclohexylStaLys(e-CBZ)Phe benzyl ester”, for which, under “coupling step”, the step yield came out at 69%. The same measure, in the same setting: for “BocPhe(N-imBoc)His-2-N-i-propylazahomocyclohexylStaLys(e-CBZ)Phe benzyl ester” the value was 51%.
